Laboratory results published in patent publication US8501683B2, “Cycloundecadepsipeptide compounds and use of said compounds as a medicament” (priority 2008, dated 2013).
At least one peptide structure holds a part that was inferred or is arguable (an end, a ring closure or a residue). Square brackets hold non-standard residues; d marks the D form. Peptide text beside a SMILES is read from it. MeBmt = C/C=C/C[C@@H](C)[C@@H](O)[C@H](NC)C(=O)O; NMeI = CC[C@H](C)[C@H](NC)C(=O)O; NMeL = CN[C@@H](CC(C)C)C(=O)O; NMeV = CN[C@H](C(=O)O)C(C)C; dHiv = CC(C)[C@@H](O)C(=O)O; dNMeA = CN[C@H](C)C(=O)O; Abu = CC[C@H](N)C(=O)O; Sar = CNCC(=O)O

Each molecule was assayed on Concanavalin-A-induced T-cell proliferation (assay: Concanavalin-A-induced T-cell proliferation assay (immunosuppression)). Conditions: inhibition of Concanavalin-A-induced T-cell proliferation.
Format: cell-based
Experimental: To determine whether the cycloundecadepsipepide compounds of the present invention have a non-immunosuppression activity, experiments were carried out that compared the dose-dependent inhibition of Concanavalin-A-induced T-cell proliferation (see Table 2).
The method of the assays were performed as described by Dayton et al. (1992. Mol. Pharmacol. 41. 671-676) and Mishell et al. (1980. Cell proliferation in selected methods in cellular immunology, V, XXIX, W.H. Freeman Co., San Francisco, Calif. 153-160).

Compound	IC50 [nM]
C/C=C/C[C@@H](C)[C@@H](O)[C@H]1C(=O)N[C@@H](CC)C(=O)N(C)[C@H](C)C(=O)N(C)[C@@H]([C@@H](C)CC)C(=O)N[C@@H](CC(C)C)C(=O)N(C)[C@@H](CC(C)C)C(=O)NCC(=O)O[C@H](C(C)C)C(=O)N(C)[C@@H](CC(C)C)C(=O)N[C@@H](CC(C)C)C(=O)N(C)[C@@H](C(C)C)C(=O)N1C [(Ii), cyclo-(MeBmt-Abu-D-MeAla-MeIle-Leu-MeLeu-Gly-D-Hiv-MeLeu-Leu-MeVal)] (cyclo([Abu][dNMeA][NMeI]L[NMeL]G[dHiv][NMeL]L[NMeV][MeBmt]))	2690
C/C=C/C[C@@H](C)[C@@H](O)[C@H]1C(=O)N[C@@H](CC)C(=O)N(C)[C@H](C)C(=O)N(C)[C@@H](C(C)C)C(=O)N[C@@H]([C@@H](C)CC)C(=O)N(C)[C@@H](CC(C)C)C(=O)NCC(=O)O[C@H](C(C)C)C(=O)N(C)[C@@H](CC(C)C)C(=O)N[C@@H](CC(C)C)C(=O)N(C)[C@@H](C(C)C)C(=O)N1C [(Ig), cyclo-(MeBmt-Abu-D-MeAla-MeVal-Ile-MeLeu-Gly-D-Hiv-MeLeu-Leu-MeVal)] (cyclo([Abu][dNMeA][NMeV]I[NMeL]G[dHiv][NMeL]L[NMeV][MeBmt]))	2690
C/C=C/C[C@@H](C)[C@@H](O)[C@H]1C(=O)N[C@@H](C(C)C)C(=O)N(C)[C@H](C)C(=O)N(C)[C@@H](C(C)C)C(=O)N[C@@H](C(C)C)C(=O)N(C)CC(=O)NCC(=O)O[C@H](C(C)C)C(=O)N(C)[C@@H](CC(C)C)C(=O)N[C@@H](CC(C)C)C(=O)N(C)[C@@H](C(C)C)C(=O)N1C [(Ik), cyclo-(MeBmt-Val-D-MeAla-MeVal-Val-Sar-Gly-D-Hiv-MeLeu-Leu-MeVal)] (cyclo(G[dHiv][NMeL]L[NMeV][MeBmt]V[dNMeA][NMeV]V[Sar]))	3440
